# From publication PMC7425996
# Numbering of substitutions follows the chain as printed. In names and notes the source's numbering stands. Results are given in words; binding and its absence hold for the method and conditions named. In cells and extracts the contact can be indirect. Some binding calls cover weakened binding; strength is not graded here. Where a sequence is shown, tags or fusion partners need not be part of it.
# T1: GFP-Nap1 (Dictyostelium Nap1 tagged with GFP) (Dictyostelium discoideum) (UniProt Q869Q3)
# T1 sequence: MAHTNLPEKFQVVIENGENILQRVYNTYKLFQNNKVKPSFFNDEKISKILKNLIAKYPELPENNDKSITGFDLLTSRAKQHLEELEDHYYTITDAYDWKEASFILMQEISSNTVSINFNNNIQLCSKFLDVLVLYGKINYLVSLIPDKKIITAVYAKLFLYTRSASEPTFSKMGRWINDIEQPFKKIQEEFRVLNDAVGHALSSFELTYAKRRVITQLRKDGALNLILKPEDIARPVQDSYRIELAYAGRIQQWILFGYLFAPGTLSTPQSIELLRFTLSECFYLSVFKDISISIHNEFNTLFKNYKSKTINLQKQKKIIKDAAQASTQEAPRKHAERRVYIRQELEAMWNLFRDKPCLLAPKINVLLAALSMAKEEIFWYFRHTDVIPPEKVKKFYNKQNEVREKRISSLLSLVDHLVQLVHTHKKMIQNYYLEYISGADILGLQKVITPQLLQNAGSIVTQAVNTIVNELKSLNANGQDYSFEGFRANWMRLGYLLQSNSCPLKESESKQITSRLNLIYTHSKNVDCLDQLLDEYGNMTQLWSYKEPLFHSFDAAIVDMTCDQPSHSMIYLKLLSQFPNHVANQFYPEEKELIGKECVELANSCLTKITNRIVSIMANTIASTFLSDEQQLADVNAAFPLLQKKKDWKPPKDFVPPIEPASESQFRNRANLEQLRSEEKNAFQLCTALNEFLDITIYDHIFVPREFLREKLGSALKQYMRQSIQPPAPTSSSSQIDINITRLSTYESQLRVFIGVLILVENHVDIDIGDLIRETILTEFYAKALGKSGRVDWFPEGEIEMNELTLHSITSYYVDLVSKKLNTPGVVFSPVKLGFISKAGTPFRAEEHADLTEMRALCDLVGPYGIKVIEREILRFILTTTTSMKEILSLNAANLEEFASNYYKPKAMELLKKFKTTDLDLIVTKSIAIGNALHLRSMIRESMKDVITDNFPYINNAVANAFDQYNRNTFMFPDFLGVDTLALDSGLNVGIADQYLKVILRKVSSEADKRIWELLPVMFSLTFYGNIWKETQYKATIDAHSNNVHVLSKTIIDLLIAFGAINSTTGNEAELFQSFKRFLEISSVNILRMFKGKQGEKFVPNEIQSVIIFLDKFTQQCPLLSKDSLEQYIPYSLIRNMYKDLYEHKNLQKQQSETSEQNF
# B1: Abi (Dictyostelium Abi) (protein, UniProt Q55FT9 1-332)
# chain: MSESIDINVYSQTTIPNAMAELMDNHNKMEQISAYCKSLYANGDAAQAYEQTQGYAKNALLNVAYHIQTVGTHITSLLQLQTNEMEKLNIEIQTLTQRVRMIHDSTGTNVFSNQDAAKPYKSSLKNRKVDTEATKAPVKYVHKPISYGISASDINQNGVPPPLNHSNSSANLTSSSGHLAASSTSNSSTPSYQSPSYSSQPTISSGTPPPIQKQPPRVGNAPPPPSLSVPAAPPPPVMNVPPPPPTSQRPSSVNNNAPSNDFPPPPPPSSSSSGGDLPPPPSFGLPPPPTLGDDFPPPPPPPVGSYDFPPPPARPQSQFYDHNDFPPPPPPM
# B2: Pir121 (Dictyostelium PIR121) (protein, UniProt Q6UK63 1-1336)
# chain: MSVDPKQSKIADVFERCDVLESFPFHDDQSEIEEQSPSIGYDAYDKSLNYTDRGAYETQWSEETIGMEKMEEVLKQGDSFINMVYTYRSCSKALPTVKTAEQVNKTQIYEGNFEVLEPEIKKLKDFMYFQKDTIKLFCDHIKKLASTYDKKKETISASESFINYLVRILDLLAILDALKNMKACLNNDFSFFKRATGFLRKQMSGTEDQTQENHTLYLFLANQNSITSSLKLELHNIDKFDDILPMIVNQCADYLEQEKYILPSEKHCLLRVMPFVLFLIDENDSKHNINKNKNLNISRYAKIFKKNPVVPLYGDMQITLESLVKRSPHFDEKAWGTSTLDSKSALDYEIIHVLDQTRSLYNEYMARFANMVNEIRAAKARGPKEPLPLAESDIQAITLMGLRILSDWTSRVLQQSAWKYSKPNNDPTISATFDYERVVKFNYTKEERTALVQLIAMIKSLASLMMKSETLLQPILRKTIHQELQEFVQINLKETIKSFVKNNPKKKDNIKLEMSQLKNISVDWFSGFEPAEAVPNKKSKEVEEKVQIPARAVPPSPTQLELILTLVSSLMDKKKDFSSDQYRDFEAFSSKAFFYRYLLSLSSSIISITDLADLWYREFYLELNNRVQFPIETSLPWILTDHILESDDPSLIEHLFYPLGLYNDTAQRALLSLNQRFLYDEIEAELNLCFDQLLYKLSGKVYTHFKTQASSILLDKPYKTQLELAHFNGKLHTPKSRFDVLLRQKHITLLGRSIDLCGLLAQRQNNTIRQNLDYAISRFEACDLTSIVELETQIANIKLTHKLLSEYFDIDPFESIFNEINESTSLVSYHGRIVLHIIFELVADFAPNYTFNSITQRFIKAPYTFTEELKRDALPKTNPVFLFGNKYLNAAYANSIELYKNFIGVPHIQSILRIVGKKNLPLIVAEVLRNIEIKITNVLSPYVSELLQGMPASTKLPIYDYGTEGGYGYFQLKLKDIYIYPDLRPEVLQTFRELGNSLVFMNLLDQVITQTDSYNFAKAAPFLGITPETWKDLEPSTEDPTLQSPLYSQLQKLAQLLESRPEVAKSSQSLNDMVANAWRADKFYRPSEQNFSLFKSVLQRFSSILNIVRHDWSGAPPDNGVICVDSSTEFYRLWSALQFVICWPLSNENDKSFHELFGDGLMWAGCSLIHFLGQQYRFELFDFCYHILNVEEAAAVRSDKPALKNFFKNAQIIKDINNQIFSILNTYCPPPPPSNMILSPPATEQAEQFIVTTTVEEQSIQQQQQQQQQQQLQQSTSNSGSSLSLSAAGAPPPPPPPSTNGLPPPPPMAEYEMSSSIDDFAPPPPPPFGMPPPPPM
# B3: Scar^WT (Dictyostelium Scar expressed from pDM304 in scar- cells) (protein, UniProt Q54NF8 1-443)
# chain: MVLITRYLPSVTDNNQPALEGQSKDQIVDTVITSTTVGIINQLTMLVAHSNSIFTALANDANLVTQRIEKLGSRIRPLIQSIPSIEDYHRNTSIDTMNSKPRAEFHADNSERNQHFTHASIPASINTVYEKCKPPPNLQLLDPYMDDGQKSLKLYTNPDFFMDEWVAEQQKLHEEARQRKRERREARLKKKGEKNEVEVKKVKSVTKVRYDPVTGEKITINIESPHTSSPQIQHQSNNTATPQHTTQHFGTNQYQAPPPPPLSQSSPSQQHSPINSYTPPPPPLNTSTPSPSSSFQGRPPSTGFNTPPPPMSNNNNMPPPPPMQQNGGAANNRLSVHNSAPIVAAPAPPPPPPPPSAPAPPPPPMAKAGGGASDIKPKASGARSDLLSSIMQGMALKPAEERKVAEAPKKEEALNVADILARRIAWAGDSDSSEDESDDSDWD
# B4: Scar^S8A (unphosphorylatable Dictyostelium Scar) (protein, UniProt Q54NF8 1-443)
# chain: B3 chain with S287A, S290A, S301A, S335A, S339A, S384A, S388A, S389A
# B5: Scar^S8D (phosphomimetic Dictyostelium Scar) (protein, UniProt Q54NF8 1-443)
# chain: B3 chain with S287D, S290D, S301D, S335D, S339D, S384D, S388D, S389D
# Target: T1, GFP-Nap1 (Dictyostelium Nap1 tagged with GFP) (Dictyostelium discoideum)
# Test: co-IP; GFP-TRAP beads pull down GFP-Nap1 from cleared Dictyostelium lysates in TNE/T buffer (10 mM Tris-HCl pH 7.5, 150 mM NaCl, 0.5 mM EDTA, 0.1% Triton X-100), 2 hours at 4°C, 4 washes; eluates read by Coomassie gel, western blot (Pir121, Nap1, Scar, Abi) and LC-MS/MS of the Scar band; in S2 Fig cells with or without MG132
row,binding,Binder
1,binds,B1
2,binds,B2
3,binds,B3
4,binds,B4
5,binds,B5
